PubChem BioAssay AID1159584 – Peter MacCallum Cancer Centre – 2016
Purpose: 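Genes that CDH1-null MCF10A cells selectively depend on to survive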 (primary screen). System: human MCF10A breast epithelial cells, parental and CDH1-null. Reagents: siRNA against human genes. Measurement: 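Cell viability by CellTiter-Glo ATP luminescence, each line scaled to the mean of mock wells across plates, then CDH1-null over parental ratio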. Scale: CDH1-null / parental viability ratio: higher = CDH1-null cells survive relatively better than parental; CDH1-null viability vs mock: higher = more viable CDH1-null cells.
Here is one part, drawn at random, of about 18,000 deposited reagents. Reagents against one gene are numbered here. Further read-outs or replicates are left out here. No sequences are given here. Not stated in the record: the amount of reagent, the time to read-out.

{"target gene":"HDAC7 (histone deacetylase 7)","reagent":1,"CDH1-null / parental viability ratio":0.89,"CDH1-null viability vs mock (fraction of mock)":0.72}
{"target gene":"KCNC4 (potassium voltage-gated channel subfamily C member 4)","reagent":1,"CDH1-null / parental viability ratio":1.08,"CDH1-null viability vs mock (fraction of mock)":0.82}
{"target gene":"CISH (cytokine inducible SH2 containing protein)","reagent":1,"CDH1-null / parental viability ratio":0.97,"CDH1-null viability vs mock (fraction of mock)":0.84}
{"target gene":"CHST8 (carbohydrate sulfotransferase 8)","reagent":1,"CDH1-null / parental viability ratio":1.09,"CDH1-null viability vs mock (fraction of mock)":0.73}
{"target gene":"FILIP1L (filamin A interacting protein 1 like)","reagent":1,"CDH1-null / parental viability ratio":0.85,"CDH1-null viability vs mock (fraction of mock)":0.67}
{"target gene":"CA14 (carbonic anhydrase 14)","reagent":1,"CDH1-null / parental viability ratio":1.05,"CDH1-null viability vs mock (fraction of mock)":0.46}
{"target gene":"CMIP (c-Maf inducing protein)","reagent":1,"CDH1-null / parental viability ratio":0.98,"CDH1-null viability vs mock (fraction of mock)":0.56}
{"target gene":"LARS2 (leucyl-tRNA synthetase 2, mitochondrial)","reagent":1,"CDH1-null / parental viability ratio":0.99,"CDH1-null viability vs mock (fraction of mock)":0.76}
{"target gene":"ERCC6L2 (ERCC excision repair 6 like 2)","reagent":1,"CDH1-null / parental viability ratio":0.88,"CDH1-null viability vs mock (fraction of mock)":0.76}
{"target gene":"ERCC6L2 (ERCC excision repair 6 like 2)","reagent":2,"CDH1-null / parental viability ratio":1.21,"CDH1-null viability vs mock (fraction of mock)":0.64}
{"target gene":"HIPK2 (homeodomain interacting protein kinase 2)","reagent":1,"CDH1-null / parental viability ratio":1.02,"CDH1-null viability vs mock (fraction of mock)":1.21}
{"target gene":"TTLL4 (tubulin tyrosine ligase like 4)","reagent":1,"CDH1-null / parental viability ratio":1.1,"CDH1-null viability vs mock (fraction of mock)":0.98}
{"target gene":"LKAAEAR1 (LKAAEAR motif containing 1)","reagent":1,"CDH1-null / parental viability ratio":0.84,"CDH1-null viability vs mock (fraction of mock)":0.32}
{"target gene":"TFPI (tissue factor pathway inhibitor)","reagent":1,"CDH1-null / parental viability ratio":0.79,"CDH1-null viability vs mock (fraction of mock)":0.77}
{"target gene":"UBE2C (ubiquitin conjugating enzyme E2 C)","reagent":1,"CDH1-null / parental viability ratio":1.02,"CDH1-null viability vs mock (fraction of mock)":0.88}
{"target gene":"TTYH3 (tweety family member 3)","reagent":1,"CDH1-null / parental viability ratio":1.18,"CDH1-null viability vs mock (fraction of mock)":0.92}
{"target gene":"RAPGEF1 (Rap guanine nucleotide exchange factor 1)","reagent":1,"CDH1-null / parental viability ratio":1.08,"CDH1-null viability vs mock (fraction of mock)":0.96}
{"target gene":"ADD3 (adducin 3)","reagent":1,"CDH1-null / parental viability ratio":1.14,"CDH1-null viability vs mock (fraction of mock)":1.25}
{"target gene":"DIPK1A (divergent protein kinase domain 1A)","reagent":1,"CDH1-null / parental viability ratio":1.05,"CDH1-null viability vs mock (fraction of mock)":0.9}
{"target gene":"NOS1AP (nitric oxide synthase 1 adaptor protein)","reagent":1,"CDH1-null / parental viability ratio":0.8,"CDH1-null viability vs mock (fraction of mock)":0.43}
{"target gene":"TENT5D (terminal nucleotidyltransferase 5D)","reagent":1,"CDH1-null / parental viability ratio":0.85,"CDH1-null viability vs mock (fraction of mock)":0.61}
{"target gene":"VMA21 (vacuolar ATPase assembly factor VMA21)","reagent":1,"CDH1-null / parental viability ratio":1.49,"CDH1-null viability vs mock (fraction of mock)":1.04}
{"target gene":"SKA1 (spindle and kinetochore associated complex subunit 1)","reagent":1,"CDH1-null / parental viability ratio":1.5,"CDH1-null viability vs mock (fraction of mock)":0.84}
{"target gene":"WARS2 (tryptophanyl tRNA synthetase 2, mitochondrial)","reagent":1,"CDH1-null / parental viability ratio":1.12,"CDH1-null viability vs mock (fraction of mock)":1.12}
{"target gene":"MMADHC (metabolism of cobalamin associated D)","reagent":1,"CDH1-null / parental viability ratio":1.15,"CDH1-null viability vs mock (fraction of mock)":0.9}
{"target gene":"TXNDC16 (thioredoxin domain containing 16)","reagent":1,"CDH1-null / parental viability ratio":1,"CDH1-null viability vs mock (fraction of mock)":0.74}
{"target gene":"TMCO5A (transmembrane and coiled-coil domains 5A)","reagent":1,"CDH1-null / parental viability ratio":0.83,"CDH1-null viability vs mock (fraction of mock)":0.4}
{"target gene":"DNAI2 (dynein axonemal intermediate chain 2)","reagent":1,"CDH1-null / parental viability ratio":1.38,"CDH1-null viability vs mock (fraction of mock)":0.72}
{"target gene":"GLUD1 (glutamate dehydrogenase 1)","reagent":1,"CDH1-null / parental viability ratio":0.91,"CDH1-null viability vs mock (fraction of mock)":1.02}
{"target gene":"ZBED8L (ZBED8 like)","reagent":1,"CDH1-null / parental viability ratio":0.94,"CDH1-null viability vs mock (fraction of mock)":0.79}
{"target gene":"CNMD (chondromodulin)","reagent":1,"CDH1-null / parental viability ratio":1.45,"CDH1-null viability vs mock (fraction of mock)":1.12}
{"target gene":"ZNF395 (zinc finger protein 395)","reagent":1,"CDH1-null / parental viability ratio":1.08,"CDH1-null viability vs mock (fraction of mock)":0.96}
{"target gene":"FGFR1 (fibroblast growth factor receptor 1)","reagent":1,"CDH1-null / parental viability ratio":1.15,"CDH1-null viability vs mock (fraction of mock)":0.94}
{"target gene":"COG2 (component of oligomeric golgi complex 2)","reagent":1,"CDH1-null / parental viability ratio":1.02,"CDH1-null viability vs mock (fraction of mock)":0.86}
{"target gene":"KLHL5 (kelch like family member 5)","reagent":1,"CDH1-null / parental viability ratio":1.17,"CDH1-null viability vs mock (fraction of mock)":0.9}

Reformatted: 2 of the entries above
target gene	reagent	CDH1-null / parental viability ratio	CDH1-null viability vs mock (fraction of mock)
TXNDC16 (thioredoxin domain containing 16)	1	1	0.74
TMCO5A (transmembrane and coiled-coil domains 5A)	1	0.83	0.4
